Measurements taken from patent US20260008784A1 (VASTHERA CO., LTD., priority 2022, published 2026).
For at least one compound, name, drawing or mass did not settle the structure.

Key:
[1] = system: yeast thioredoxin (Trx)/yeast Trx reductase (TR); test: Peroxidase activity assay (H2O2 reduction, NADPH oxidation); format: biochemical; settings: 50 μM test compound, 3 μM yeast Trx, 1.5 μM yeast TR, 250 μM NADPH, 1.2 mM H2O2, 30° C.; NADPH oxidized per minute
Description: Hydrogen peroxide (H2O2)-reducing peroxidase activity of compounds in present invention was performed as follows. Peroxyredoxin activity was measured in reaction mixture (200 μL volume) containing 50 mM HEPES buffer (pH 7.0), 1 mM EDTA, 250 μM NADPH, 3 μM yeast thioredoxin (Trx), 1.5 μM yeast Trx reductase (TR), 50 μM test compound, and 1.2 mM H2O2.
Reaction was initiated by adding H2O2 and the decrease in absorbance at 340 nm was measured using Agilent UV8453 spectrophotometry (Hewlett Packard, USA) at 30° C. for 12 min. Initial reaction rate is the amount of NADPH oxidized per minute calculated from slope of the linear part of curve.
The H2O2-reducing peroxidase activity of the test compounds in present invention was measured in a reaction mixture containing thioredoxin (Trx)/thioredoxin reductase (TR), respectively.

[2] = system: Tyr 857 phosphorylation of PDGF receptor-β (PDGFRβ) in HASMC; test: Immunoblot of PDGF-mediated signaling in PrxII knock-down HASMC; format: cell-based, human; settings: HASMC depleted of PrxII expression, FIG. 2
Description: Cells were quickly washed in ice-cold phosphate-buffered saline (PBS) and lysed in extraction buffer containing 20 mM Hepes (pH 7.0), 1% Triton X-100, 150 mM NaCl, 10% glycerol, 1 mM EDTA, 2 mM EGTA, and 1 mM DTT, 5 mM Na3VO4, 5 mM NaF, 1 mM AEBSF, aprotinin (5 μg/mL), and leupeptin (5 μg/mL). After cen-trifugation at 12,000×g, the clarified cell extracts were used for immunoblotting. For re-blotting, the immunoblots were retrieved in a solution of 67 mM Tris (pH 6.7), 2% SDS, and 100 mM 2-mercaptoethanol at 60° C. for 30 min to remove antibodies and rinsed three times with a Tris-buffered saline (TBS) solution containing 1% Triton X-100. The retrieved membranes were subjected to new immunoblotting.
In human aortic smooth muscle cell (HASMC) and human pulmonary artery smooth muscle cell (PASMC) in which PrxII was knocked out by transfecting the PrxII siRNA, the ability of test compounds to replace the cellular function of PrxII was evaluated. That is, the efficacy of the new compounds was verified in terms of signaling pathways induced by PDGF that regulates the growth and migration of vascular smooth muscle cells in the aorta and pulmonary artery. Activation of PDGF-induced signaling pathway was analyzed by an immunoblot method using an antibody that specifically recognizes phosphorylation of Tyr 857, which is a major phosphorylation site on PDGF receptor (PDGFRβ).

CN1C(=O)C2CSSC1(C)C(=O)N2Cc1nc2ccccc2s1 (centres unmarked) [Compound 15, 6-(benzo[d]thiazol-2-ylmethyl)-1,8-dimethyl-2,3-dithia-6,8-diazabicyclo[3.2.2]nonane-7,9-dione]
Peroxidase activity for H2O2 reduction [1]: 4.79 nmol/min | Effect on phosphorylation of Tyr 857 on PDGFR [2]: strongly abolish the phosphorylation
